According to paper PMC12714281:
Results are given in words; binding and its absence hold for the method and conditions named. Binding seen in cells or lysates may run through a third protein. A result given as binding can be weak or reduced; the word gives no strength.

By UniProt entry, the sequences of proteins in these tests, tags left out. Where a name states a change or a piece, a line headed by the entry shows the natural chain unless it says otherwise.
UniProt Q60932: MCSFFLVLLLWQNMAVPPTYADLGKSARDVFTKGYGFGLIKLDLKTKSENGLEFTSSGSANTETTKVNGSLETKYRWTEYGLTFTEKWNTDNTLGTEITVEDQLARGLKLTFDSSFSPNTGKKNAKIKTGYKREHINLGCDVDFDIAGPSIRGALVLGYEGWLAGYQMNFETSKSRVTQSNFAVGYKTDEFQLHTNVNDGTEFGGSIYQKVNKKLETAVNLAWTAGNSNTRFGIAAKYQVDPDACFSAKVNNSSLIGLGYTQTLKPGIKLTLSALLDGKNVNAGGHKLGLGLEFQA

Target: T1, TMEM43, endogenous in mouse heart (mouse (endogenous in heart)) (UniProt Q9DBS1)
T1 sequence: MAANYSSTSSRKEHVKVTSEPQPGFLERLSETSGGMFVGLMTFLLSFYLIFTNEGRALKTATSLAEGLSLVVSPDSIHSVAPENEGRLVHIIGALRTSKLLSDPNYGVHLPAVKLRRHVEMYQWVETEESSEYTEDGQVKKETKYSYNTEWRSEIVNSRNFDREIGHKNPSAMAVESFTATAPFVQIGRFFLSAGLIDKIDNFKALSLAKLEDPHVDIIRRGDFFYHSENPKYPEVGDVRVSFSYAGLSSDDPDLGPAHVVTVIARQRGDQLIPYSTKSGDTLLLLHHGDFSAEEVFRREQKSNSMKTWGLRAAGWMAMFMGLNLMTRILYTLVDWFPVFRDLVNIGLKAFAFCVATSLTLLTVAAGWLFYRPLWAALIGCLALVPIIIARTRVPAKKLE
Assay: co-IP; endogenous IP from lysate of adult C57/B6 mouse hearts with antibodies of TMEM43 and VDAC1; immunoblotting

- binding: binds
Substance: VDAC1, endogenous in mouse heart (from UniProt Q60932)
